The target of this experiment is M-CSF (human) (UniProt P09603). The experiment in a line: peptide or protein array; both purified.

Sequences of proteins named here, by UniProt entry; tags and fusion partners are left off. A change or cut given only in a name is not applied to a line headed by its entry.
UniProt P09603: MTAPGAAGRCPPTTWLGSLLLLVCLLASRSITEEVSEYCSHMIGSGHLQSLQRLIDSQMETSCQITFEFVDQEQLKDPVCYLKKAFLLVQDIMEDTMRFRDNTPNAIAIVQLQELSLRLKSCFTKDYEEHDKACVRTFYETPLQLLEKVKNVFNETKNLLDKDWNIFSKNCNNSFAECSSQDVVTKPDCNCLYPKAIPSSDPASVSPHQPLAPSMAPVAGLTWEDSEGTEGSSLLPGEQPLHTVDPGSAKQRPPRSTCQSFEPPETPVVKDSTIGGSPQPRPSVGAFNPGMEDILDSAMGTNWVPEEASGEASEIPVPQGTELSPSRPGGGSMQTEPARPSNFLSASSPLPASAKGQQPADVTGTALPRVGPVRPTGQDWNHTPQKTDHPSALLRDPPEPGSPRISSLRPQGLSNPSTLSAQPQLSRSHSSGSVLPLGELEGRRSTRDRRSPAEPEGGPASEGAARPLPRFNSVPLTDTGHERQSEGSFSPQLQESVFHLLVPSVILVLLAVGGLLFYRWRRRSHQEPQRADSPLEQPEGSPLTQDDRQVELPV

These are yes or no findings as the source states them, for the method shown. Binding calls can cover weak binding; strength is not graded here.

B1: EBV BARF1 (protein, UniProt P03228 21-221)
chain: VTAFLGERVTLTSYWRRVSLGPEIEVSWFKLGPGEEQVLIGRMHHDVIFIEWPFRGFFDIHRSANTFFLVVTAANISHDGNYLCRMKLGETEVTKQEHLSVVKPLTLSVHSERSQFPDFSVLTVTCTVNAFPHPHVQWLMPEGVEPAPTAANGGVMKEKDGSLSVAVDLSLPKPWHLPVTCVGKNDKEEAHGVYVSGYLSQ
As for B1, the binding result is given as “binds”.

For the origin of these results see paper PMC4858740.
